{
  "source": "PubChem BioAssay AID662",
  "about": "(National Center for Advancing Translational Sciences (NCATS), 2007)",
  "note": "The list shows a part of the results. The main result of the screen is listed elsewhere. These columns were measured beside it and carry no call. Most of these compounds were active or inconclusive in the main read-out, so they are no random draw. Words in brackets tell the shape of the fitted curve; partial curves, single points and poor fits give uncertain potencies.",
  "data": [
    {"assay": "Cell signaling CRE-BLA (Fsk stim)", "conditions": "CHO CRE-bla reporter (cAMP response element driving beta-lactamase), forskolin EC10, beta-lactamase ratio; measured here: 460 nm blue channel", "in_short": "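The 460nm/530nm emission ratio after CCF4 loading defined %Activity, from which AC50 values were obtained. CRE-bla CHO cells received compound dilution series together with an EC10 level of NKH 477 for 3 hours at 37 degrees Celsius.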", "values": [
      {"compound": "CC(C)(/C=N/O)/[N+]([O-])=C/C=[N+](\\[O-])C(C)(C)/C=N/O", "AC50": "25.1 µM [rising, single point]"},
      {"compound": "COc1ccc(-n2c(Cc3cccn3C)nnc2SCC(=O)Nc2ccc(C)c(Cl)c2)cc1", "AC50": "6.31 µM [falling, partial curve]"},
      {"compound": "CCOc1cc(CN2CCSCC2)ccc1O", "AC50": "0.00398 µM [falling, full curve, poor fit]"},
      {"compound": "CN1C(=O)C(O)(CC(=O)c2ccccn2)c2cc(Br)ccc21", "note": "(centres undefined)", "AC50": "0.00316 µM [falling, full curve]"},
      {"compound": "COc1ccc2[nH]c(C(=O)c3ccccc3)cc2c1", "AC50": "25.1 µM [rising, partial curve]"},
      {"compound": "CCn1c(SCC(=O)c2ccccc2)nnc1-c1cnccn1", "AC50": "5.01 µM [rising, single point]"},
      {"compound": "O=C(NCCN1CCOCC1)NC1(C(F)(F)F)Oc2ccccc2O1", "AC50": "6.31 µM [falling, partial curve, poor fit]"},
      {"compound": "CSc1nc(-c2ccccc2)ccc1C(N)=O", "AC50": "5.01 µM [falling, full curve, poor fit]"},
      {"compound": "CCOC(=O)c1oc2ccccc2c1NC(=O)c1cccc(OC)c1", "AC50": "2.51 µM [rising, full curve]"},
      {"compound": "COc1cccc(-c2nc(NCCN3CCOCC3)c3ccccc3n2)c1", "AC50": "12.6 µM [rising, single point]"},
      {"compound": "CCc1cc(=O)oc2cc(OCC(=O)OC)c(Cl)cc12", "AC50": "15.8 µM [rising, single point]"},
      {"compound": "COc1cccc(-n2nnc3c(=O)n(Cc4ccccc4F)cnc32)c1", "AC50": "15.8 µM [rising, partial curve]"},
      {"compound": "Nn1c(SCc2ccccc2)nnc1-c1ccco1", "AC50": "7.94 µM [rising, partial curve]"},
      {"compound": "O=S(=O)(c1cccc(-c2nc3ccccc3s2)c1)N1CCCC1", "AC50": "10 µM [rising, partial curve]"},
      {"compound": "O=c1cc(CN2CCN(C/C=C/c3ccccc3)CC2)c2cc(O)ccc2o1", "AC50": "0.1 µM [rising, single point]"},
      {"compound": "Clc1ccc(-c2nn3cnnc3s2)c(Cl)c1", "AC50": "12.6 µM [rising, single point]"},
      {"compound": "CCn1c(=O)cc(O)c2ccccc21", "AC50": "12.6 µM [rising, partial curve]"},
      {"compound": "Cn1c(-c2ccc3nc(N)sc3c2)nc2cc(N)ccc21", "AC50": "25.1 µM [falling, single point]"},
      {"compound": "CCS(=O)(=O)N1Cc2ccccc2CC1C(=O)N1CCN(c2cccc(C)c2C)CC1", "note": "(centres undefined)", "AC50": "1 µM [falling, full curve]"},
      {"compound": "N#C/C(=C/c1ccc(N2CCCCCC2)o1)c1ccc(F)cc1", "AC50": "25.1 µM [falling, single point]"},
      {"compound": "Nc1nc(Nc2ccccc2Br)nc(C(F)(F)F)n1", "AC50": "7.94 µM [rising, partial curve]"},
      {"compound": "CC(NC(=O)c1ccco1)C(c1cccs1)N1CCN(c2ccccc2)CC1", "note": "(centres undefined)", "AC50": "31.6 µM [falling, single point]"},
      {"compound": "COc1ccc(CNc2cc(-c3ccccc3OC)ncn2)c(OC)c1", "AC50": "12.6 µM [rising, partial curve, poor fit]"},
      {"compound": "Cc1cc(C)c2c(n1)nn1c(-n3ccnc3)cc(C)nc21", "AC50": "12.6 µM [rising, partial curve]"},
      {"compound": "Cc1ccc(S(=O)(=O)N2CCCC2C(=O)NCCc2nc3ccccc3[nH]2)cc1", "note": "(centres undefined)", "AC50": "10 µM [rising, partial curve]"},
      {"compound": "NS(=O)(=O)c1ccc(N=Nc2c(O)c(C(=O)O)cc3ccccc23)cc1", "AC50": "1.58 µM [falling, partial curve]"},
      {"compound": "Cc1ccc(-c2nc(C)sc2CC(=O)NCc2ccco2)cc1", "AC50": "7.94 µM [falling, partial curve]"},
      {"compound": "Cc1ccc(C(=O)COC(=O)CNC(=O)c2ccco2)cc1", "AC50": "25.1 µM [falling, single point]"},
      {"compound": "Cc1cc(C)c(-c2cc(NC(=O)CSc3nncn3C)n(-c3ccccc3)n2)cc1C", "AC50": "5.01 µM [falling, single point]"},
      {"compound": "COc1ccc(-c2c3c(=O)n(C)c(=O)n(C)c3cn2-c2ccccc2)cc1", "AC50": "0.251 µM [falling, full curve]"},
      {"compound": "COC(=O)c1cccc(CSc2nnc(-c3ccco3)n2-c2ccccc2)c1", "AC50": "12.6 µM [rising, partial curve]"},
      {"compound": "Cc1ccc(-c2nc3cnccn3c2Nc2ccccc2)o1", "AC50": "10 µM [rising, single point]"},
      {"compound": "O=C(O)c1cc2c([nH]c1=O)CCCC2", "AC50": "0.631 µM [falling, single point]"},
      {"compound": "Cc1cc(C)n(-c2ncnc3c2oc2ccccc23)n1", "AC50": "12.6 µM [rising, single point]"},
      {"compound": "O=C(CC1CCCCC1)c1c(O)c2ccccc2oc1=O", "AC50": "25.1 µM [falling, single point]"},
      {"compound": "O=C(CSC1=NS(=O)(=O)c2ccccc21)Nc1ccccc1", "AC50": "12.6 µM [falling, partial curve]"},
      {"compound": "CC(=O)N1CCC2(CCCN(c3cccc(-c4ccccc4)c3)C2)CC1", "AC50": "25.1 µM [falling, single point]"},
      {"compound": "COC(=O)CCP(=O)(O)Cc1ccccc1CP(=O)(O)CCC(=O)OC", "AC50": "6.31 µM [falling, partial curve]"},
      {"compound": "O=C(CNC(=O)c1ccccc1)NC1(C(=O)NC2CCCC2)CCCCC1", "AC50": "0.0251 µM [falling, full curve, poor fit]"},
      {"compound": "COc1cc(S(=O)(=O)N2CCOCC2)ccc1NC(=O)c1cc2c(s1)CCC2", "AC50": "10 µM [rising, single point]"},
      {"compound": "CN(C)CCCn1cc(C2=C(c3c[nH]c4ccccc34)C(=O)NC2=O)c2ccccc21", "AC50": "15.8 µM [falling, partial curve]"},
      {"compound": "Cc1cc(C)n2nc(C(=O)OCCOc3ccc(F)cc3)nc2n1", "AC50": "25.1 µM [rising, single point]"},
      {"compound": "O=C(CSc1ccc2nnc(-c3ccccn3)n2n1)N1CCN(c2ccccc2)CC1", "AC50": "10 µM [rising, partial curve]"},
      {"compound": "Cc1ccccc1NS(=O)(=O)c1ccc2[nH]cc(C(=O)N(C)Cc3ccco3)c(=O)c2c1", "AC50": "7.94 µM [falling, partial curve]"},
      {"compound": "COCCCNC(=O)c1cn(C)c(=O)c2cc(OC)c(OC)cc12", "AC50": "10 µM [rising, partial curve]"},
      {"compound": "Cc1c(OCc2ccc(C(=O)O)o2)ccc2c3c(c(=O)oc12)CCC3", "AC50": "1 µM [falling, partial curve]"},
      {"compound": "COC(=O)C1=CN(CCCN2CCCC2=O)C=C(C(=O)OC)C1c1ccccc1C(F)(F)F", "AC50": "12.6 µM [rising, partial curve]"},
      {"compound": "CCOc1cc(C2C(C(=O)OC)=CN(C3CCCC3)C=C2C(=O)OC)cc(Br)c1O", "AC50": "2.51 µM [rising, full curve]"},
      {"compound": "O=C(CS(=O)(=O)Cc1ccccc1)NCC1CCCO1", "note": "(centres undefined)", "AC50": "12.6 µM [rising, single point]"},
      {"compound": "COc1ccc(OC)c(NC(=O)c2ccc(NS(=O)(=O)c3c(C)noc3C)cc2)c1", "AC50": "10 µM [rising, single point]"},
      {"compound": "CCCc1c(C(=O)OCC)[nH]c2c1C(=O)CCC2", "AC50": "12.6 µM [rising, single point]"},
      {"compound": "CC(C)CNc1oc(-c2ccc(F)cc2)nc1C#N", "AC50": "5.01 µM [rising, partial curve]"},
      {"compound": "Cc1ccccc1-n1c(=O)cc(N2CCN(Cc3ccccc3)CC2)[nH]c1=O", "AC50": "10 µM [rising, partial curve]"},
      {"compound": "COc1cc(=O)n(C)c2c(OC[C@@H](O)C(C)(C)O)cccc12", "AC50": "15.8 µM [rising, partial curve]"},
      {"compound": "CC(C)c1nc(SCC(=O)NCc2ccccc2)n[nH]1", "AC50": "5.01 µM [falling, single point]"},
      {"compound": "COc1cc2c(cc1OC)C1=C(C#N)COCN1CC2", "AC50": "1 µM [rising, full curve]"},
      {"compound": "O=c1cc(-c2ccc(Cl)c(Cl)c2)[nH][nH]1", "AC50": "0.00398 µM [falling, full curve, poor fit]"},
      {"compound": "CC1(C)CC(=O)C2=C(C1)OC(N)=C(C#N)C2c1cccc(OC(=O)c2ccco2)c1", "note": "(centres undefined)", "AC50": "7.94 µM [rising, partial curve]"},
      {"compound": "Cc1cccc(CSC2=NCCN2C(=O)c2ccc(Br)o2)c1", "AC50": "10 µM [rising, partial curve]"},
      {"compound": "O=C(CSc1nnc(-c2cnccn2)n1Cc1ccco1)Nc1ccc(Br)cc1", "AC50": "0.00316 µM [falling, full curve, poor fit]"},
      {"compound": "COc1ccc(C(=O)CSc2ncn[nH]2)cc1OC", "AC50": "12.6 µM [rising, single point]"},
      {"compound": "Cc1ccc(CSC2=Nc3ccccc3C3=NC(CCC(=O)NCc4ccco4)C(=O)N23)cc1", "note": "(centres undefined)", "AC50": "0.01 µM [rising, full curve]"},
      {"compound": "CCN(c1cccc(C)c1)S(=O)(=O)c1ccc2c(c1)CCN2C(C)=O", "AC50": "12.6 µM [rising, single point]"},
      {"compound": "CN(C)c1ncc2nc(-c3cc(F)cc(F)c3)c(=O)n(-c3ccccc3)c2n1", "AC50": "0.631 µM [rising, full curve]"},
      {"compound": "Cc1cc(N2CCC(C(=O)Nc3ccc(F)cc3)CC2)nc(-c2ccccc2)n1", "AC50": "0.1 µM [falling, full curve, poor fit]"},
      {"compound": "c1ccc2c(c1)Cc1cc3ccccc3nc1-2", "AC50": "12.6 µM [rising, partial curve]"},
      {"compound": "CCOC(=O)c1cn(-c2ccccc2)nc1-c1ccncc1", "AC50": "10 µM [rising, partial curve]"},
      {"compound": "CC(C)Cn1cc(C(=O)NCc2cccs2)c2c3ccccc3n(C)c2c1=O", "AC50": "0.316 µM [falling, full curve, poor fit]"},
      {"compound": "COc1cc(/C=C(/C#N)c2ccc(F)cc2)ccc1OCc1ccc(C(=O)O)o1", "AC50": "15.8 µM [falling, single point]"}
    ]}
  ]
}
